The values that follow come from patent publication US20040018550A1.

Sequences of proteins named here, by UniProt entry; tags and fusion partners are left off.
UniProt P62834: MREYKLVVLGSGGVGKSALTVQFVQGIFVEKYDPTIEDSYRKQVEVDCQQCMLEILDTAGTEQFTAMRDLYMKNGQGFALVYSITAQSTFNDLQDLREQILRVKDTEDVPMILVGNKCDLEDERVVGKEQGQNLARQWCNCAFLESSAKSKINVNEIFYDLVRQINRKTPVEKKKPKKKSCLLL

This experiment addresses pEG202-K-rev bait (LexA-K-rev-1) (UniProt P62834). Put plainly: yeast interaction trap, LEU2 and LacZ reporters.

No constants are given. Whether binding was seen depends on the method and setting. Some entries that bind do so weakly or less than the wild type.

B1: Krit1 (protein, UniProt O00522 208-736, looked up)
chain: MGYSALEIKSKMLALEKADTCIYNPLFGSDLQYTNRVDKVVINPYFGLGAPDYSKIQIPKQEKWQRSMSSVTEDKERQWVDDFPLHRSACEGDSELLSRLLSERFSVNQLDSDHWAPIHYACWYGKVEATRILLEKGKCNPNLLNGQLSSPLHFAAGGGHAEIVQILLNHPETDRHITDQQGRSPLNICEENKQNNWEEAAKLLKEAINKPYEKVRIYRMDGSYRSVELKHGNNTTVQQIMEGMRLSQETQQYFTIWICSENLSLQLKPYHKPLQHVRDWPEILAELTNLDPQRETPQLFLRRDVRLPLEVEKQIEDPLAILILFDEARYNLLKGFYTAPDAKLITLASLLLQIVYGNYESKKHKQGFLNEENLKSIVPVTKLKSKAPHWTNRILHEYKNLSTSEGVSKEMHHLQRMFLQNCWEIPTYGAAFFTGQIFTKASPSNHKVIPVYVGVNIKGLHLLNMETKALLISLKYGCFMWQLGDTDTCFQIHSMENKMSFIVHTKQAGLVVKLLMKLNGQLMPTERNS
With B1, the binding entry is on record as “binds”.
